Measured values reported in paper PMC4592220, “Geminivirus Activates [sequence] LEAVES 2 to Accelerate Cytoplasmic DCP2-Mediated mRNA Turnover and Weakens RNA Silencing in Arabidopsis” (PLoS Pathogens, 2015).
Results are given in words; binding and its absence hold for the method and conditions named. Binding seen in cells or lysates may run through a third protein. Some binding calls cover weakened binding; strength is not graded here. Sequences can lack the tags named with a protein.

Molecular target: T1, AS2 fused to nYFP or cYFP (BiFC) (Arabidopsis thaliana) (UniProt O04479)
T1 sequence: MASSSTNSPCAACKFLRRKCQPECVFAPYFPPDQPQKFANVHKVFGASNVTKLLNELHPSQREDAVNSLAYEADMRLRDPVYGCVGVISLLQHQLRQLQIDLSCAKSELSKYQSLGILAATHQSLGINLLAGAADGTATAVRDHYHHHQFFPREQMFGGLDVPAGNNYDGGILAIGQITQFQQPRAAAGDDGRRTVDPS
Assay: split reporter; BiFC with nYFP and cYFP fusions co-infiltrated by Agrobacterium into N. benthamiana leaves; confocal microscopy 48 hours post-infiltration; Aux/IAA-ECFP as nuclear marker

B1: AS2 fused to nYFP or cYFP (BiFC) (protein, UniProt O04479 1-199)
chain: MASSSTNSPCAACKFLRRKCQPECVFAPYFPPDQPQKFANVHKVFGASNVTKLLNELHPSQREDAVNSLAYEADMRLRDPVYGCVGVISLLQHQLRQLQIDLSCAKSELSKYQSLGILAATHQSLGINLLAGAADGTATAVRDHYHHHQFFPREQMFGGLDVPAGNNYDGGILAIGQITQFQQPRAAAGDDGRRTVDPS
- binding: binds
